{"source": "patent US8748445B2", "about": "“Methods for treating glioma” (The UAB Research Foundation, priority 2004, dated 2014)", "target": "T1, system Xc (Homo sapiens, UniProt Q9UPY5)", "T1 construct": "reduced ^35S-labeled cystine uptake by 60-80% in glioma lines (d-54MG, U-87MG and U-251MG) and a primary glioma culture (GBM62); endogenous in cells; host or cells: human glioma cell lines D-54MG, U-87MG, U-251MG and primary glioma culture GBM62", "T1 sequence (Q9UPY5 1-501)": "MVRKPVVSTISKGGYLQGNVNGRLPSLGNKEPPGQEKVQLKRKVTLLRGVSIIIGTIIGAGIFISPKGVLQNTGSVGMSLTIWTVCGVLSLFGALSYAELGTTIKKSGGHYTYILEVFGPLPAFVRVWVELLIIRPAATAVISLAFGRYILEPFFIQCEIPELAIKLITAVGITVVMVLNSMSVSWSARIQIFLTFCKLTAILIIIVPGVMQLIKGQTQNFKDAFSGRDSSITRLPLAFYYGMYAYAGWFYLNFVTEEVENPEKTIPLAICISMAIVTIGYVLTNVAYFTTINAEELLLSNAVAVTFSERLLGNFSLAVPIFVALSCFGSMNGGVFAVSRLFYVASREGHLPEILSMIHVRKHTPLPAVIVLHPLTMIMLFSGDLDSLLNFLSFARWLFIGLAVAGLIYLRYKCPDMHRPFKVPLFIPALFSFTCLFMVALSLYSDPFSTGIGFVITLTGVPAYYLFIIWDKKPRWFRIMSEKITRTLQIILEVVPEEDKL", "T1 sequence (P08195 1-529 partner)": "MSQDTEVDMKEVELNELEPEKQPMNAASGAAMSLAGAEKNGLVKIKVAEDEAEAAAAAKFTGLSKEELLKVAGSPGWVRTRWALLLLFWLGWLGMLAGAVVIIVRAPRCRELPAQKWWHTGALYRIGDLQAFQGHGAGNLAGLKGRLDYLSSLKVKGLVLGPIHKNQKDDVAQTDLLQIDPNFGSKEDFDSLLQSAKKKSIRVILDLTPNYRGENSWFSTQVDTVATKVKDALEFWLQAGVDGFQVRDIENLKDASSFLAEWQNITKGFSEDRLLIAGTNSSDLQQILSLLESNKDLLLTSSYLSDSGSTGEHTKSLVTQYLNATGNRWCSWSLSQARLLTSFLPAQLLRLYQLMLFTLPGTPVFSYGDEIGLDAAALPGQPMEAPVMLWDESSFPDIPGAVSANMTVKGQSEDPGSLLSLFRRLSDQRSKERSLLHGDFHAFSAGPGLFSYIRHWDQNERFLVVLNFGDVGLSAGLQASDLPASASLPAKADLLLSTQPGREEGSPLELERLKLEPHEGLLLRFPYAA", "assay": "35S-labeled cystine uptake in glioma lines and primary glioma culture", "assay_type": "cell-based", "settings": "glioma lines D-54MG, U-87MG, U-251MG and primary glioma culture GBM62; 0.25 mM (FIG. 2A)", "description": "System Xc is a glutamate-cystine exchanger and can therefore be inhibited if the outward directed gradient for glutamate is eliminated by exposure to high concentrations of extracellular glutamate. The principal hypothesis in this study is that system Xc serves as a pipeline for cellular cystine uptake, with glutamate release being an obligatory by-product. Cystine uptake is the rate-limiting step for the synthesis of GSH, which is the main intracellular antioxidant that protects cells from oxidative stress and resulting reactive oxygen species (ROS) (Jefferies et al., 2003).", "note": "Some results were stated once for a whole list of compounds, not compound by compound.", "data": [{"smiles": "O=C(O)c1cc(/N=N/c2ccc(S(=O)(=O)Nc3ccccn3)cc2)ccc1O", "note": "[sulfasalazine]", "values": [{"measurement": "reduction of 35S-labeled cystine uptake", "value": "60-80%"}]}]}
